This is a selection; strong and weak results do not stand in their true shares. Calls are pooled over several reports, among them a noisy single-well screen. The list shows a part of the results. The list shows a part of the results.
How the values were obtained:
Conditions in all cases: stereoisomer not certain
[1] = target: Olr226 (Rattus norvegicus) (UniProt P23270)
Outline: (§1)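 Each entry records the cell line, G-protein, co-transfected protein and tags used. Methods varied with the source, often transient luciferase assays in mammalian cell lines. A receptor–molecule pair is called responsive (active) if the original authors judged its signal statistically different from baseline and non-responsive (inactive) otherwise.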

The chains behind the UniProt entries cited, without tags or fusion partners. Where a name states a change or a piece, a line headed by the entry shows the natural chain unless it says otherwise.
UniProt P23270: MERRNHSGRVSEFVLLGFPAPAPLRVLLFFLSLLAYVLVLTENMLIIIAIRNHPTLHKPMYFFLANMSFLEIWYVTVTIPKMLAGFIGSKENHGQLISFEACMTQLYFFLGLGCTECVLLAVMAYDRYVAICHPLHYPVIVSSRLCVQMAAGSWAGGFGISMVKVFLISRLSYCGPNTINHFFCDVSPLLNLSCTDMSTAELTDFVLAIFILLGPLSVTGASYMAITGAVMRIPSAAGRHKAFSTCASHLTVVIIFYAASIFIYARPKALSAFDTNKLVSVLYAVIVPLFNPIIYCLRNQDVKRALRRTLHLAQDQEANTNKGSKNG
UniProt Q8VFV4: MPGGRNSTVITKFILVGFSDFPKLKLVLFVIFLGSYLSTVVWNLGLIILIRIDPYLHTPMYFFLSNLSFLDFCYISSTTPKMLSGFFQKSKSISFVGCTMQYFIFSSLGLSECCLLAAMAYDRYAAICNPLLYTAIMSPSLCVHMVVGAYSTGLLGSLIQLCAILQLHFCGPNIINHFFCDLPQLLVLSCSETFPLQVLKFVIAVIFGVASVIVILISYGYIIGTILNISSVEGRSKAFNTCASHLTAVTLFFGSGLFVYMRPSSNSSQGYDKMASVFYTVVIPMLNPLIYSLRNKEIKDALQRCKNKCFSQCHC
UniProt Q8VEZ0: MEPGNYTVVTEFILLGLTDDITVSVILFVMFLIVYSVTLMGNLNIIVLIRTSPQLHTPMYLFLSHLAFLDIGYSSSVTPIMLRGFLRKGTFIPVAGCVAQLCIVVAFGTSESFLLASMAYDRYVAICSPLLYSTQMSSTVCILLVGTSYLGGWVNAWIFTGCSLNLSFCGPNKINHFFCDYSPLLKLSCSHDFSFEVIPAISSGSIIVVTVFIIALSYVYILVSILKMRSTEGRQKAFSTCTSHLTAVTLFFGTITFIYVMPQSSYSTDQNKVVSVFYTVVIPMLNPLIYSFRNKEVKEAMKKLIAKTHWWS
UniProt Q7TS48: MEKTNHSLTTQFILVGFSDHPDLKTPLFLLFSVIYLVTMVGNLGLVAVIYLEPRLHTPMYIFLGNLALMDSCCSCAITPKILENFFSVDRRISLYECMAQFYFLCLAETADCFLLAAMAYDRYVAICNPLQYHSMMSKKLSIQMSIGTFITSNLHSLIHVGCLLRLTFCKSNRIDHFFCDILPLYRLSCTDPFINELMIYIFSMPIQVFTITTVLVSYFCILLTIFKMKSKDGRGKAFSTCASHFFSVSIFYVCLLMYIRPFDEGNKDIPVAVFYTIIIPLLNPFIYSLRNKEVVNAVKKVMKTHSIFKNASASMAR

Or10j5 (Mus musculus) = target: T1, Or10j5 (Mus musculus) (UniProt Q62007)
T1 sequence (whole entry): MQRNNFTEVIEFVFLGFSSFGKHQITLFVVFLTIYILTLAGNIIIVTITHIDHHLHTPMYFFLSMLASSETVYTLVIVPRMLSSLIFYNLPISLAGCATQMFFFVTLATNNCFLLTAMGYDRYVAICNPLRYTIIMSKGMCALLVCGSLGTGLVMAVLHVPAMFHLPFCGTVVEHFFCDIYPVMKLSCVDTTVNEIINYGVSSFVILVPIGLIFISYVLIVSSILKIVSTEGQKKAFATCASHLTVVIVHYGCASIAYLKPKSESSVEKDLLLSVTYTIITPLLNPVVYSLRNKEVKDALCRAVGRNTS
Outline: as §1

Or1m1 (Mus musculus) = target: T2, Or1m1 (Mus musculus) (UniProt Q8VFM9)
T2 sequence (whole entry): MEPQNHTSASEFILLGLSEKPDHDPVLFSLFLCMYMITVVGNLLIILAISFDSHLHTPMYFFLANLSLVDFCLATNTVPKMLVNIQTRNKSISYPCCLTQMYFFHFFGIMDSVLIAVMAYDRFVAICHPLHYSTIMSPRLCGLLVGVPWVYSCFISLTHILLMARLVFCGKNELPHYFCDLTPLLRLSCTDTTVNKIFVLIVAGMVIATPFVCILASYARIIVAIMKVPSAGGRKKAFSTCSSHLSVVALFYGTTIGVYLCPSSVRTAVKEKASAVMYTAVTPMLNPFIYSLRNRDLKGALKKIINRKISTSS
Outline: as §1

Or2c1 (Mus musculus) = target: T3, Or2c1 (Mus musculus) (UniProt P23275)
T3 sequence (whole entry): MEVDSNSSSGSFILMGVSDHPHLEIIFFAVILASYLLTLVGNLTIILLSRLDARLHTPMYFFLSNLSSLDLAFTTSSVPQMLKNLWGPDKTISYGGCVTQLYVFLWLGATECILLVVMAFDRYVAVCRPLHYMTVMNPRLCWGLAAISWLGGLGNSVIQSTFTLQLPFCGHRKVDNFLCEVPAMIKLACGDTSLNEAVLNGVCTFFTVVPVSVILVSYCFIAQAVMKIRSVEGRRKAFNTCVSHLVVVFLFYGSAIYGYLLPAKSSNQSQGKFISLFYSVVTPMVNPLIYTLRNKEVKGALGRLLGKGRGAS
Outline: as §1

Or5ar1 (Mus musculus) = target: T4, Or5ar1 (Mus musculus) (UniProt Q8VGS3)
T4 sequence (whole entry): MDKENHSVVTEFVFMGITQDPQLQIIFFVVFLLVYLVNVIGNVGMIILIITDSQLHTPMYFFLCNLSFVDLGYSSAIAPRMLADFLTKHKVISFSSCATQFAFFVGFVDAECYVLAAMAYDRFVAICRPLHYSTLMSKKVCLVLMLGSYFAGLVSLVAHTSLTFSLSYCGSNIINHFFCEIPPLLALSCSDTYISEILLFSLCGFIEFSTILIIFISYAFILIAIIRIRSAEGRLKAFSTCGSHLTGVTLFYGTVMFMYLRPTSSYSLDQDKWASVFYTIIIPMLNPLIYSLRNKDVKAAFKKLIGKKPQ
Outline: as §1

OR9Q2 = system: T5, OR9Q2
T5 sequence (whole entry): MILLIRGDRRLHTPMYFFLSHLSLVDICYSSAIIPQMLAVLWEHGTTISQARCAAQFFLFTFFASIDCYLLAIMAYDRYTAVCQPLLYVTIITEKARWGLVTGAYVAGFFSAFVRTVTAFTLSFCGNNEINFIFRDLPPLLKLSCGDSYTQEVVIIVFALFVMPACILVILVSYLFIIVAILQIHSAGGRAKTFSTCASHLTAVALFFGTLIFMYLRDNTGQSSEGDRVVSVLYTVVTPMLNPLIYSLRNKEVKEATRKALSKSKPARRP
Outline: as §1

ORM2B = system: T6, ORM2B
T6 sequence (whole entry): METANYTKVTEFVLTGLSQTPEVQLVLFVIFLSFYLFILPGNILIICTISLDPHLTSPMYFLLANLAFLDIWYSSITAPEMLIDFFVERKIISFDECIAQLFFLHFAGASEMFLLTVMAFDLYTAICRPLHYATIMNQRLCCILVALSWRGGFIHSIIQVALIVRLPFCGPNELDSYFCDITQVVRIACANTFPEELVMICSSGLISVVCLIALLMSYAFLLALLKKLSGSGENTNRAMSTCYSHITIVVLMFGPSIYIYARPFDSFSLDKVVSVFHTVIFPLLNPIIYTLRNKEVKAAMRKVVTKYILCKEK
Outline: as §1

Or5an6 (Mus musculus) = Or5an6 (Mus musculus) (UniProt Q8VFV4)
Outline: as §1

Or5p57 (Mus musculus) = Or5p57 (Mus musculus) (UniProt Q8VEZ0)
Outline: as §1

Or5k16 (Mus musculus) = Or5k16 (Mus musculus) (UniProt Q7TS48)
Outline: as §1

Measured: odorant receptor agonist call

CCCCCCCC=O
inactive: Or1m1 (Mus musculus) | Or2c1 (Mus musculus) | Or5ar1 (Mus musculus)
active: [1] | Or10j5 (Mus musculus)

CC(=O)C(C)=O
inactive: [1] | Or1m1 (Mus musculus) | Or5ar1 (Mus musculus)

CCCCCCCCCCC=O
inactive: Or10j5 (Mus musculus)

CCCCCOC(C)=O
inactive: OR9Q2 | ORM2B | Or10j5 (Mus musculus) | Or1m1 (Mus musculus) | Or5ar1 (Mus musculus)

CCCCO
inactive: OR9Q2 | ORM2B | Or10j5 (Mus musculus) | Or1m1 (Mus musculus) | Or5ar1 (Mus musculus)

COc1ccccc1O
inactive: OR9Q2 | ORM2B | Or1m1 (Mus musculus) | Or5ar1 (Mus musculus)

CC(=O)OC1CC2CCC1(C)C2(C)C (stereo not drawn)
inactive: OR9Q2 | ORM2B | Or1m1 (Mus musculus) | Or5ar1 (Mus musculus)

O=C1CCCCC1
active: Or2c1 (Mus musculus)
inactive: OR9Q2 | ORM2B | Or5an6 (Mus musculus) | Or5ar1 (Mus musculus)

CC(C)CC(=O)O
inactive: OR9Q2 | ORM2B | Or10j5 (Mus musculus) | Or1m1 (Mus musculus) | Or5ar1 (Mus musculus)

CC1COCc2cc3c(cc21)C(C)(C)C(C)C3(C)C (stereo not drawn)
active: OR9Q2 | ORM2B | Or1m1 (Mus musculus)
inactive: Or5ar1 (Mus musculus)

CC(=O)c1ccccc1
inactive: OR9Q2 | ORM2B | Or10j5 (Mus musculus) | Or1m1 (Mus musculus) | Or2c1 (Mus musculus) | Or5ar1 (Mus musculus)

CCCCCC(=O)O
not listed: [1] | Or5an6 (Mus musculus) | Or5k16 (Mus musculus)
inactive: all other assays above

c1cnccn1
inactive: OR9Q2 | ORM2B | Or1m1 (Mus musculus) | Or5ar1 (Mus musculus)

CCCCCCC=O
inactive: Or10j5 (Mus musculus) | Or1m1 (Mus musculus) | Or2c1 (Mus musculus) | Or5ar1 (Mus musculus)

C=CCc1ccc(OC)c(OC)c1
inactive: OR9Q2 | ORM2B | Or1m1 (Mus musculus) | Or5ar1 (Mus musculus) | Or5k16 (Mus musculus)

CCCC(=O)O
inactive: OR9Q2 | ORM2B | Or10j5 (Mus musculus) | Or5p57 (Mus musculus)

CCCCCCCCC=O
inactive: Or10j5 (Mus musculus) | Or1m1 (Mus musculus) | Or2c1 (Mus musculus) | Or5ar1 (Mus musculus)

CCCCCC(C)=O
inactive: OR9Q2 | ORM2B | Or1m1 (Mus musculus) | Or2c1 (Mus musculus) | Or5ar1 (Mus musculus)

C=CCc1ccc(O)c(OC)c1
inactive: Or10j5 (Mus musculus) | Or1m1 (Mus musculus) | Or5ar1 (Mus musculus)

Source: the M2OR odorant receptor database
